According to patent publication US20080306001A1, “TRANSCRIPTIONAL MODULATION OF EXTRACELLULAR MATRIX (ECM) OF DERMAL FIBROBLASTS” (priority 2007, published 2008):

Columns and labels:
dermal fibroblasts [1] = test: Effect of interfering peptides on expression of ECM components, mRNA level (RT-PCR); type: cell-based, human; settings: peptide 1 μM, 24 hours
Procedure: (§1) Human dermal fibroblasts were cultured in standard conditions (DMEM, 10% FCS, penicillin+streptomycin) and used in experiments after three passages in the laboratory. Cells were grown in 24 well plates, each treatment in triplicates. Cells were plated 16 hours prior treatments started. Peptides were added to the media, and media was changed every day during 7 day experiment. CPP concentration was 10 μM.
(§2) Total RNA from various human tissues was purified using RNAwiz (Ambion, USA) and subjected to subsequent DNase I treatment using the DNA-Free kit (Ambion). Total RNA from cancer cells was purified by using 4PCRmini kit (Ambion). First-strand cDNAs were synthesized with Superscript III reverse transcriptase (Invitrogen, USA) and 5 μg of total RNA using oligo d(T) priming in a final reaction volume of 50 μL
(§3) The cDNA was amplified by PCR using the 2,5U Hot-Firepol (Solis BioDyne, Estonia) and buffer Yellow (Naxo, Estonia). Reaction was performed in a 10 ul volume, using 0.5 ul cDNA as a template. Following primer sets were designed for this study:
(§4) The cells were treated with peptides (1 μM) 24 hours for the mRNA analysis and 72 hours for protein analysis. All experiments were done in triplicates. Variation between replicates was less that 15%.

human dermal fibroblasts [2] = test: Whole genome gene expression analysis (Affymetrix GeneChip Human Gene 1.0 ST Array); type: cell-based; settings: peptide 10 μM, 24 hour
Procedure: Human dermal fibroblasts were cultured in standard conditions (DMEM, 10% FCS, penicillin+streptomycin) and used in experiments after three passages in the laboratory. Cells were grown in 60 mm plates, each treatment in duplicates. Cells were plated 16 hours prior treatments started. Peptides (10 μM) were added to the media, and cells were collected for RNA isolation 24 hour later.
Total RNA was purified by using 4PCRmini kit (Ambion). First-strand cDNAs were synthesized with Superscript III reverse transcriptase (Invitrogen, USA) and 5 μg of total RNA using oligo d(T) priming in a final reaction volume of 50 μL and used to generate fluorescently labeled probes for whole genome gene expression analysis. Whole genome gene expression analysis was conducted using Affymetrix GeneChip™ Human Gene 1.0 ST Array.

human dermal fibroblasts [3] = test: Effect of peptides on expression of growth factors, protein (Western blot); type: cell-based; settings: peptide 10 μM
Procedure: as §1, with “12” for “24”
(§5) Western blots using antibodies against growth factors were performed using standard protocols. Cells were lysed in SDS loading buffer and separated on 5% SDS PAGE following transfer onto PVD membrane using semidry blotting. Antibodies were diluted 1:2000 and incubated for 2 hours followed by secondary antibody conjugated to alkaline phosphatase. Antibody binding was visualized using one step BCIP reagent (Pierce).

dermal fibroblasts [4] = test: Effect of interfering peptides on expression of ECM components, protein level (Western blot); type: cell-based, human
Procedure: as §1
as §5, with “blot” for “blots”, “fibronectin, thrombospondin, collagen I, collagen II, collagen 4, elastin, MMP1, MMP2, MMP7 and TIMP1” for “growth factors”
as §4

human dermal fibroblasts [5] = test: Effect of peptides on expression of growth factors, mRNA (RT-PCR); type: cell-based; settings: for CTGF mRNA, fold stimulation of expression compared to control / HGF mRNA, fold stimulation of expression compared to control / IGF-1 mRNA, fold stimulation of expression compared to control / VEGF mRNA, fold stimulation of expression compared to control / b-FGF mRNA, fold stimulation of expression compared to control: peptide 10 μM; for expression of CTGF (in words): protein and mRNA
Procedure: as §1, with “12” for “24”
as §2
as §3, with “Primer” for “Following primer”, “designed to specifically amplify the nucleic acid sequence for the corresponding growth factor” for “designed”, “study: […]” for “study:”

[6] = tested on: human dermal fibroblast cell lines obtained from elderly patients; test: Effect of CPP mimicking peptides on synthesis of collagen I, collagen II and elastin in aged dermal fibroblasts (Western blot); type: cell-based; settings: peptide 10 μM
Procedure: The ability to interfere interaction of TAF4, BRG1 and N-CoR1 with the active transcriptional complex and stimulate synthesis of collagen I, collagen II and elastin was tested on 2 human dermal fibroblast cell lines obtained from elderly patients. It has been shown that: • TAF4 suppression using siRNA stimulates expression of numerous genes in embryonic fibroblasts. (Mengus G, Fadloun A, Kobi D, Thibault C, Perletti L, Michel I, Davidson I. 2005. TAF4 inactivation in embryonic fibroblasts activates TGFbeta signaling and autocrine growth. EMBO J. 2005 Aug. 3; 24(15):2753-67.) • Brg1 inhibits numerous genes during development. (Inayoshi Y, Kaneoka H, Machida Y, Terajima M, Dohda T, Miyake K, Iijima S. 2005. Repression of GR-mediated expression of the tryptophan oxygenase gene by the SWI/SNF complex during liver development. J Biochem (Tokyo). 2005 October; 138(4):457-65) • N-CoR1 plays a crucial role in the repressive activity of diverse transcription factors (J. Frasor, J. M. Danes, C. C. Funk and B. S. Katzenellenbogen. 2005. Estrogen down-regulation of the corepressor N-CoR: Mechanism and implications for estrogen derepression of N-CoR-regulated genes. PNAS. vol. 102 no. 37, 13153-13157.) • SMAD7 functions as a component of negative feedback regulation that controls timining and extent of TGFbeta signaling (Zhu X, Topouzis S, Liang L F, Stotish RL. Myostatin signaling through Smad2, Smad3 and Smad4 is regulated by the inhibitory Smad7 by a negative feedback mechanism. Cytokine. 2004 Jun. 21; 26(6):262-72.) • TAF10 is one of the TATA box-binding protein-associated factors (TAFs), which constitute the TFIID complex.
as §1
as §5, with “blot” for “blots”, “fibronectin, thrombospondin, collagen I, collagen II, collagen 4, elastin, MMP1, MMP2, MMP7 and TIMP1” for “growth factors”

[7] = fibroblast 1 (first block of Table 1)
[8] = second block of Table 1 (also fibroblast 1)

Sequence | Number of genes with altered expression: expression stimulated 2-5 fold (human dermal fibroblasts [2]) | Number of genes with altered expression: expression stimulated more than 5 fold (human dermal fibroblasts [2]) | Number of genes with altered expression: expression suppressed 2-5 fold (human dermal fibroblasts [2]) | Number of genes with altered expression: expression suppressed more than 5 fold (human dermal fibroblasts [2]) | CTGF protein, fold stimulation of expression compared to control (human dermal fibroblasts [3]) | HGF protein, fold stimulation of expression compared to control (human dermal fibroblasts [3]) | IGF-1 protein, fold stimulation of expression compared to control (human dermal fibroblasts [3]) | VEGF protein, fold stimulation of expression compared to control (human dermal fibroblasts [3]) | b-FGF protein, fold stimulation of expression compared to control (human dermal fibroblasts [3]) | CTGF mRNA, fold stimulation of expression compared to control (human dermal fibroblasts [5]) | HGF mRNA, fold stimulation of expression compared to control (human dermal fibroblasts [5]) | IGF-1 mRNA, fold stimulation of expression compared to control (human dermal fibroblasts [5]) | VEGF mRNA, fold stimulation of expression compared to control (human dermal fibroblasts [5]) | b-FGF mRNA, fold stimulation of expression compared to control (human dermal fibroblasts [5]) | expression of CTGF (in words) (human dermal fibroblasts [5]) | further results
RPKKRKVRRRNRAGFEASDPRIIRLISLAAQKFISDIANDALQ [TAF10.1, CPP-mimicking peptide] | 786 | 451 | 543 | 298 | 13 fold | 1 fold | 1 fold | 1 fold | 2 fold | 18 fold | 2 fold | 2 fold | 2 fold | 8 fold | stimulate expression of CTGF significantly | MMP1 mRNA, fold stimulation (dermal fibroblasts [1]): 3.9 fold; MMP7 mRNA, fold stimulation (dermal fibroblasts [1]): 1.9 fold; MMp2 mRNA, fold stimulation (dermal fibroblasts [1]): 7.9 fold; TIMP mRNA, fold stimulation (dermal fibroblasts [1]): 4.8 fold; collagen IV mRNA, fold stimulation (dermal fibroblasts [1]): 9.0 fold; collagenI mRNA, fold stimulation (dermal fibroblasts [1]): 7.9 fold; elastin mRNA, fold stimulation (dermal fibroblasts [1]): 4.7 fold; fibronectin mRNA, fold stimulation (dermal fibroblasts [1]): 9.8 fold; thrombospondin mRNA, fold stimulation (dermal fibroblasts [1]): 12.7 fold; expression of components of ECM (in words) (dermal fibroblasts [4]; dermal fibroblasts in vitro, protein and mRNA): stimulate expression of components of ECM; CollagenI protein, fold stimulation (dermal fibroblasts [4]; peptide 1 μM, 72 hours): 3.9 fold; Elastin protein, fold stimulation (dermal fibroblasts [4]; peptide 1 μM, 72 hours): 2.4 fold; Fibronectin protein, fold stimulation (dermal fibroblasts [4]; peptide 1 μM, 72 hours): 2.6 fold; MMP1 protein, fold stimulation (dermal fibroblasts [4]; peptide 1 μM, 72 hours): 1.3 fold; MMP2 protein, fold stimulation (dermal fibroblasts [4]; peptide 1 μM, 72 hours): 1.5 fold; MMP7 protein, fold stimulation (dermal fibroblasts [4]; peptide 1 μM, 72 hours): 1.7 fold; TIMP protein, fold stimulation (dermal fibroblasts [4]; peptide 1 μM, 72 hours): 2.7 fold; collagen IV protein, fold stimulation (dermal fibroblasts [4]; peptide 1 μM, 72 hours): 2.9 fold; thrombospondin protein, fold stimulation (dermal fibroblasts [4]; peptide 1 μM, 72 hours): 2.9 fold
RPKKRKVRRRSRWTEEEMEVAKKGLVEHGRNWAAIAKMVG [N-CoR1.1, CPP-mimicking peptide] | 1192 | 251 | 1286 | 76 | 9 fold | 2 fold | 1.2 fold | 1 fold | 3 fold | 12 fold | 5 fold | 2 fold | 2 fold | 23 fold | stimulate expression of CTGF significantly | collagen I, fold increase after 7 days [6, 7]: 1.5 fold; collagen II, fold increase after 7 days [6, 7]: 3 fold; elastin, fold increase after 7 days [6, 7]: 7 fold; collagen I, fold increase after 7 days [6, 8]: 5 fold; collagen II, fold increase after 7 days [6, 8]: 3 fold; elastin, fold increase after 7 days [6, 8]: 3 fold
